Values quoted from earlier work in patent US20080242870A1 (priority 2006, published 2008).
At least one compound was matched to its structure with a doubt left.

Conditions: in 0.01 M NaOH, accurate to 10%; cited from earlier work

## O=C1OC2(c3ccc(O)cc3Oc3cc(O)ccc32)c2ccccc21 [fluorescein]
  Φr of standard: 0.090
